{"source": "PubChem BioAssay AID1224826 | NIAID, 2016", "aim": "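Knock-downs that raise or lower Tnf reporter signal after endotoxin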 (primary screen)", "cells": "RAW264.7 G9 macrophages from mouse bearing reporters for p65 (GFP) and the Tnf promoter (mCherry)", "knock-down reagent": "siRNA pool against mouse genes, 100 nM", "duration": "16 h of LPS stimulation, after 2 days of siRNA transfection", "treatment": "bacterial lipopolysaccharide (Salmonella minnesota R595), 10 ng/ml", "measured": "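Imaged Tnf reporter mCherry in nuclei, minus background, normalised per plate to the median and expressed as robust z-scores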", "reading the numbers": "Tnf reporter robust z-score: higher = stronger Tnf promoter reporter signal after LPS", "rule for the call": "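a well counts as active at a score of -1.3 or below (Tlr4 knock-down control median) or above 3 (raised signal); controls and wells holding fewer than 50 cells are excluded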", "meaning of the calls": "active = Tnf reporter clearly lowered or raised; inactive = no clear change in Tnf reporter", "note": "In all, the deposit lists about 17,000 reagents; this is a part drawn at random. Of all reagents, about 1,110 (6.6%) got an active call. 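Active means lowered or raised reporter signal; replicate intensities are raw and not normalised per plate.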 The numbers tell different reagents against one gene apart. Further read-outs or replicates are left out here."}
{"gene":"Diaph2","reagent no.":1,"Tnf reporter robust z-score":1.62,"fewer than 50 cells in well":"enough cells in well","Call":"inactive"}
{"gene":"Pou3f3","reagent no.":1,"Tnf reporter robust z-score":1.09,"fewer than 50 cells in well":"enough cells in well","Call":"inactive"}
{"gene":"Klhdc2","reagent no.":1,"Tnf reporter robust z-score":-0.7,"fewer than 50 cells in well":"enough cells in well","Call":"inactive"}
{"gene":"Lgalsl","reagent no.":1,"fewer than 50 cells in well":"fewer than 50 cells per well; well left out of calls","Call":"inactive"}
{"gene":"Npvf","reagent no.":1,"Tnf reporter robust z-score":-0.39,"fewer than 50 cells in well":"enough cells in well","Call":"inactive"}
{"gene":"H2bc3","reagent no.":1,"Tnf reporter robust z-score":-1.8,"fewer than 50 cells in well":"enough cells in well","Call":"active"}
{"gene":"Dpf2","reagent no.":1,"Tnf reporter robust z-score":1.08,"fewer than 50 cells in well":"enough cells in well","Call":"inactive"}
{"gene":"Foxk2","reagent no.":1,"Tnf reporter robust z-score":0.11,"fewer than 50 cells in well":"enough cells in well","Call":"inactive"}
{"gene":"Or56a4","reagent no.":1,"fewer than 50 cells in well":"fewer than 50 cells per well; well left out of calls","Call":"inactive"}
{"gene":"Ttc29","reagent no.":1,"Tnf reporter robust z-score":3.78,"fewer than 50 cells in well":"enough cells in well","Call":"active"}
{"gene":"9330132A10Rik","reagent no.":1,"Tnf reporter robust z-score":1.16,"fewer than 50 cells in well":"enough cells in well","Call":"inactive"}
{"gene":"Mup4","reagent no.":1,"Tnf reporter robust z-score":-1.02,"fewer than 50 cells in well":"enough cells in well","Call":"inactive"}
{"gene":"Fem1c","reagent no.":1,"Tnf reporter robust z-score":1.05,"fewer than 50 cells in well":"enough cells in well","Call":"inactive"}
{"gene":"Fem1c","reagent no.":2,"Tnf reporter robust z-score":-1.27,"fewer than 50 cells in well":"enough cells in well","Call":"inactive"}
{"gene":"Exoc3l","reagent no.":1,"Tnf reporter robust z-score":1.47,"fewer than 50 cells in well":"enough cells in well","Call":"inactive"}
{"gene":"Ripk3","reagent no.":1,"Tnf reporter robust z-score":1.06,"fewer than 50 cells in well":"enough cells in well","Call":"inactive"}
{"gene":"Ryr3","reagent no.":1,"Tnf reporter robust z-score":0.85,"fewer than 50 cells in well":"enough cells in well","Call":"inactive"}
{"gene":"Zkscan2","reagent no.":1,"Tnf reporter robust z-score":-0.9,"fewer than 50 cells in well":"enough cells in well","Call":"inactive"}
{"gene":"1700020L24Rik","reagent no.":1,"Tnf reporter robust z-score":-0.51,"fewer than 50 cells in well":"enough cells in well","Call":"inactive"}
{"gene":"Gpr179","reagent no.":1,"Tnf reporter robust z-score":-0.32,"fewer than 50 cells in well":"enough cells in well","Call":"inactive"}
{"gene":"Lrrc59","reagent no.":1,"Tnf reporter robust z-score":-0.61,"fewer than 50 cells in well":"enough cells in well","Call":"inactive"}
